Experimental data: the supplement of paper PMC12819154, “High-throughput peptide-centric local stability assay extends protein–ligand identification to membrane proteins, tissues and bacteria” (Nature Structural & Molecular Biology, 2025)
This is one part of the list. Most entries show no effect beyond the scatter of the controls.

The chains behind the UniProt entries cited, without tags or fusion partners. Where a name states a change or a piece, a line headed by the entry shows the natural chain unless it says otherwise.
UniProt P21170: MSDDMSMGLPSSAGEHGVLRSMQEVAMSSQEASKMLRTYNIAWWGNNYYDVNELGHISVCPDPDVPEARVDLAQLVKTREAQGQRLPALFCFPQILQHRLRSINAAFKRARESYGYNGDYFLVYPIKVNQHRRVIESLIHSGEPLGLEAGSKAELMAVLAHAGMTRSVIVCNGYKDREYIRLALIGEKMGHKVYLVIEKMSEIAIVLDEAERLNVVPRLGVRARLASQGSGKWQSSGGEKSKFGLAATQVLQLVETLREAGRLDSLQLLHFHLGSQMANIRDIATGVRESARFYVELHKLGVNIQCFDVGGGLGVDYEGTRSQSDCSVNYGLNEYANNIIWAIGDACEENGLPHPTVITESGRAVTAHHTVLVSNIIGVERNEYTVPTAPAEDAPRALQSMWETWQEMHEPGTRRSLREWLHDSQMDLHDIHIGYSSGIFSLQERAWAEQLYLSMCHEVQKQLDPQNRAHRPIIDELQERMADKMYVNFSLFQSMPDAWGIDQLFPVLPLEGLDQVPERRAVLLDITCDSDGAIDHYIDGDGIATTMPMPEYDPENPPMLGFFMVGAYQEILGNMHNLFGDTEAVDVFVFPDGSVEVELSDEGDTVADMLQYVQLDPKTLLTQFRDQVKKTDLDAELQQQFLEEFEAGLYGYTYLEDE
UniProt P0DSF4: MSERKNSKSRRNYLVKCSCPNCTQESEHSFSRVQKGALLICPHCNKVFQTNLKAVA
UniProt P21437: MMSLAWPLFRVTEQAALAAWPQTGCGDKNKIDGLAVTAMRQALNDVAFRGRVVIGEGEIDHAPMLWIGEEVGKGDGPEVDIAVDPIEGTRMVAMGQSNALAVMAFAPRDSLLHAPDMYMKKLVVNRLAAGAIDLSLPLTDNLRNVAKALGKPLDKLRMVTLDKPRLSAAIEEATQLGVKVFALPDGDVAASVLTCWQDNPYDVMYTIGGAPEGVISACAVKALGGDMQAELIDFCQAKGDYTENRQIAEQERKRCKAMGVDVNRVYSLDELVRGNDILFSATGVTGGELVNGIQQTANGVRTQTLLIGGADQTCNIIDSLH
UniProt P0DN74: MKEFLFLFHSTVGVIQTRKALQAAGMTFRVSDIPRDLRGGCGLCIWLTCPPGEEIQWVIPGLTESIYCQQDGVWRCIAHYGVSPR
UniProt P19768: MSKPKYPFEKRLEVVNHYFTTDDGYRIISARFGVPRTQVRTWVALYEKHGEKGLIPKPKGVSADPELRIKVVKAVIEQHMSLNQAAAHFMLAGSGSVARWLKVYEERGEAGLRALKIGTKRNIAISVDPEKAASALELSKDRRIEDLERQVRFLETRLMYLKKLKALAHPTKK
UniProt P13039: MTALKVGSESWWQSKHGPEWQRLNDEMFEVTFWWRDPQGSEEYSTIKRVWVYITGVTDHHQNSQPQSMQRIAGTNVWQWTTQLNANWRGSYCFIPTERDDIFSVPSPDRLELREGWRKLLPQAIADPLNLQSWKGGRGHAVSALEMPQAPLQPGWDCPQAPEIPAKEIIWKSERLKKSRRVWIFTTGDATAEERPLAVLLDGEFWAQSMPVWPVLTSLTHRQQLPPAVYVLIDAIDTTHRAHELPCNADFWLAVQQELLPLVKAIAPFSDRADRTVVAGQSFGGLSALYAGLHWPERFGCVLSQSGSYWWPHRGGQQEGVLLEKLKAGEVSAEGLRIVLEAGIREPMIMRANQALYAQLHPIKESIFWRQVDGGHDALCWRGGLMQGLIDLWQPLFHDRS
UniProt P15031: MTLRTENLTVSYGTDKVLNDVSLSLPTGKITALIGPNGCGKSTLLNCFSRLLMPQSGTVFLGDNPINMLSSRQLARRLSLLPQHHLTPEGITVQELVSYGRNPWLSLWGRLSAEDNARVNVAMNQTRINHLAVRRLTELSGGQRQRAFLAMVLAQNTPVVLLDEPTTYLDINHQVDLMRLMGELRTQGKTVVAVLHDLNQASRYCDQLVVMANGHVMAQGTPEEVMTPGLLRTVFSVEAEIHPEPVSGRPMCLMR
UniProt P23331: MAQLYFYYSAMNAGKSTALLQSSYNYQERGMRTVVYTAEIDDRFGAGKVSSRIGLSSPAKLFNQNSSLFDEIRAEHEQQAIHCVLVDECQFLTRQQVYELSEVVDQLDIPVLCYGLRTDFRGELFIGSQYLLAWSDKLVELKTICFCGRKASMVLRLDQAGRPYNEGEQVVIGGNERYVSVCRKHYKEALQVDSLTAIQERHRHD
UniProt P16528: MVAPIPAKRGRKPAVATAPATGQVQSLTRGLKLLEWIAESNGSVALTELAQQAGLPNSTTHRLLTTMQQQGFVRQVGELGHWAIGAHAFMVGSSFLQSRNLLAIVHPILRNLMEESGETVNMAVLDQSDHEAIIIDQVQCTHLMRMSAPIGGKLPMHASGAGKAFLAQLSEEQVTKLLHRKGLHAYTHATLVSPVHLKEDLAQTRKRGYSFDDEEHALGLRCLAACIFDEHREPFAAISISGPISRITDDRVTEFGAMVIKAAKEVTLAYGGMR
UniProt P21367: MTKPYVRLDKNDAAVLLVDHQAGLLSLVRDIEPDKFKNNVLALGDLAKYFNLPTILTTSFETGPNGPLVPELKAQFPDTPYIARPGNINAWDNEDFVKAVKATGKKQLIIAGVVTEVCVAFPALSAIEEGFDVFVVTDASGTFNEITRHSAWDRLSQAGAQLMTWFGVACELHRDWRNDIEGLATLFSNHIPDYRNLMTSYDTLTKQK
UniProt P0C077: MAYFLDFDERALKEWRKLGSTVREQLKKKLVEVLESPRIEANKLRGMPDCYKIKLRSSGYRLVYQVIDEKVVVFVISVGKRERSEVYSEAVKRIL
UniProt P0CB39: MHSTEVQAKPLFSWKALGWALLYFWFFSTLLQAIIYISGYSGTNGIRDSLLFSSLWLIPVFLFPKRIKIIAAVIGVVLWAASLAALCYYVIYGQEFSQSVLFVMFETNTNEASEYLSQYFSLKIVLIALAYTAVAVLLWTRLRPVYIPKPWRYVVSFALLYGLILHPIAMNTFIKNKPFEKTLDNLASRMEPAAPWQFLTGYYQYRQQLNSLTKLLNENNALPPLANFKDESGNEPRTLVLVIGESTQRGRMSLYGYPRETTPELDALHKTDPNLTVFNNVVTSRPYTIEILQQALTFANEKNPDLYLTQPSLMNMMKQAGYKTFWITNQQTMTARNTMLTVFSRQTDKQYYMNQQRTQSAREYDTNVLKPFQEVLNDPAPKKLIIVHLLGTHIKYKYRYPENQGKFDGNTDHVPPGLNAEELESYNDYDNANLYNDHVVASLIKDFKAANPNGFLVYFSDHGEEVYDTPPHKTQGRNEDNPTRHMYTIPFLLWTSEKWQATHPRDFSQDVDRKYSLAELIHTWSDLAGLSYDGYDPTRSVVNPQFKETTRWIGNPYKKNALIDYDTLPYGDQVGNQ
UniProt P0DSG8: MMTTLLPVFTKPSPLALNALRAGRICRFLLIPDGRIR
UniProt P22525: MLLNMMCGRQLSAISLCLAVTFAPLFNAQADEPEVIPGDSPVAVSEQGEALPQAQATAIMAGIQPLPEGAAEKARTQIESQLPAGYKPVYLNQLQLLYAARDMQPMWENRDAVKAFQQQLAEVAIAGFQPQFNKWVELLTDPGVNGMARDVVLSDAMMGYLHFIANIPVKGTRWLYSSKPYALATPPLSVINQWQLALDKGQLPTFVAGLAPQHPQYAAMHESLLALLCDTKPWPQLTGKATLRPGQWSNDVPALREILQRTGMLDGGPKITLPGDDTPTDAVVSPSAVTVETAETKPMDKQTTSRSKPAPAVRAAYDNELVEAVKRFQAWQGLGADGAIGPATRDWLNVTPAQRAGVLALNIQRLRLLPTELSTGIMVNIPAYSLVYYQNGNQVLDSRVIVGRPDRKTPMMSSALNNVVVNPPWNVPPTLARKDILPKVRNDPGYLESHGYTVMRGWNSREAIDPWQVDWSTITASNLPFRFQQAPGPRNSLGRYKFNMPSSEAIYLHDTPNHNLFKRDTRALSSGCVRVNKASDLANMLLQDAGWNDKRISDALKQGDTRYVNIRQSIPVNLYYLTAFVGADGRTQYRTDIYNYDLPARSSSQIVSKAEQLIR
UniProt P18775: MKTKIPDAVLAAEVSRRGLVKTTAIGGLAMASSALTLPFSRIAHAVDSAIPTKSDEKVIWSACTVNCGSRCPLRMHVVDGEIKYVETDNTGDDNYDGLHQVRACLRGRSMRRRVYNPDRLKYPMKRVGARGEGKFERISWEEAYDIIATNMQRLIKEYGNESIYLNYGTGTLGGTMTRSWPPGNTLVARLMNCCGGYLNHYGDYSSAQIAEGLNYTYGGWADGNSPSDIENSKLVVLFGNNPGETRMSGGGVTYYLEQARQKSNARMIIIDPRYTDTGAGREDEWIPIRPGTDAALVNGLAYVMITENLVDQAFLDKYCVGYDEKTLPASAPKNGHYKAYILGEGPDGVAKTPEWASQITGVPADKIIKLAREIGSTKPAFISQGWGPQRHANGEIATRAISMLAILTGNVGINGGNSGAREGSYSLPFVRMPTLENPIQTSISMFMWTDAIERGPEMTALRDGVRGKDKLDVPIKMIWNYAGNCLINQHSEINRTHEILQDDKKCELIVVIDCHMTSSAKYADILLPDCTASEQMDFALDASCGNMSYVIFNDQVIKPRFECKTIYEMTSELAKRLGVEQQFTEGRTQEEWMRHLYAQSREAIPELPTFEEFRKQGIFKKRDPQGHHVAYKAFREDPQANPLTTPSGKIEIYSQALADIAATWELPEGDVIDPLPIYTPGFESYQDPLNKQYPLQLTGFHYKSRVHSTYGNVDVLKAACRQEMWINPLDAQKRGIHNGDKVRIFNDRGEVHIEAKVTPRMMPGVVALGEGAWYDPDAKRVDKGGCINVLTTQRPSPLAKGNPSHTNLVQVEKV
UniProt P0CG19: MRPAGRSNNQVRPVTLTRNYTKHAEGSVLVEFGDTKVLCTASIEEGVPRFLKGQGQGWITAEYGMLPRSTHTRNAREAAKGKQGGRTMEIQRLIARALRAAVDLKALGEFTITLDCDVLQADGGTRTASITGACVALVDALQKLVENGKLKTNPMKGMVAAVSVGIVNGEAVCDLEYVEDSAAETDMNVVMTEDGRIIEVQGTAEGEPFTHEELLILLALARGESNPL
UniProt P15043: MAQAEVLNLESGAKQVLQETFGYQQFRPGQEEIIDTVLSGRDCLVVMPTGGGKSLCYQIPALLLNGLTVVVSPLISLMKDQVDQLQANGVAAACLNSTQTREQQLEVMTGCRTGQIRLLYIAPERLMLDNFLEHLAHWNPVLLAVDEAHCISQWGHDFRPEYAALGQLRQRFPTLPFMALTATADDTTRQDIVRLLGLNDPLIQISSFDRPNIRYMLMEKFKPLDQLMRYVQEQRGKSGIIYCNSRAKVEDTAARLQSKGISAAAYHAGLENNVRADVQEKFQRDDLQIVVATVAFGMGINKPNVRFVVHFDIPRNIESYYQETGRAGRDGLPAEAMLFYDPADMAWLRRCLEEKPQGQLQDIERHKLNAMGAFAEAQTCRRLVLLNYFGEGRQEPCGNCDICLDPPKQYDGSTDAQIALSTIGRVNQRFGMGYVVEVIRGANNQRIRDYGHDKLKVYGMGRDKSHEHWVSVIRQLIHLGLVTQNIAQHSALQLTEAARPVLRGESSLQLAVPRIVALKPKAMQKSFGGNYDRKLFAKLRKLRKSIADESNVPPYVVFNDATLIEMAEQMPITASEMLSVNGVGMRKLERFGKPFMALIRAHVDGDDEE
UniProt P22787: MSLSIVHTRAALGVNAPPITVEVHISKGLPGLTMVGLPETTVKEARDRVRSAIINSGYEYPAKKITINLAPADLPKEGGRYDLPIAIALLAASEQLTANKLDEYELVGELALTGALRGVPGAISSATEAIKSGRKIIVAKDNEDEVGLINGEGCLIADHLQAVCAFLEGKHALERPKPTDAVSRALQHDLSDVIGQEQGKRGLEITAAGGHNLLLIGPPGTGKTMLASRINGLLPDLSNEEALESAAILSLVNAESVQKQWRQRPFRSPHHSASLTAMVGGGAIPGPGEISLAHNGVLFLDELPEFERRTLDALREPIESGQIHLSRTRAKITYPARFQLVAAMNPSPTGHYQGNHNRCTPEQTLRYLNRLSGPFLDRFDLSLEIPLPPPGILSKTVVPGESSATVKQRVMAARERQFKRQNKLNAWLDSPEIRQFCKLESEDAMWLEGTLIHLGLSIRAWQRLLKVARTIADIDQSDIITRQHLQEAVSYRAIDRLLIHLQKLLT
UniProt P11663: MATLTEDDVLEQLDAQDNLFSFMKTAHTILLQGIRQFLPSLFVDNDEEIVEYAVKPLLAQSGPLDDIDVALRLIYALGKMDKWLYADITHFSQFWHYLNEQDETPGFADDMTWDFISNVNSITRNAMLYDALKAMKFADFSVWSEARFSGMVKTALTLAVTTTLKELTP
UniProt P10151: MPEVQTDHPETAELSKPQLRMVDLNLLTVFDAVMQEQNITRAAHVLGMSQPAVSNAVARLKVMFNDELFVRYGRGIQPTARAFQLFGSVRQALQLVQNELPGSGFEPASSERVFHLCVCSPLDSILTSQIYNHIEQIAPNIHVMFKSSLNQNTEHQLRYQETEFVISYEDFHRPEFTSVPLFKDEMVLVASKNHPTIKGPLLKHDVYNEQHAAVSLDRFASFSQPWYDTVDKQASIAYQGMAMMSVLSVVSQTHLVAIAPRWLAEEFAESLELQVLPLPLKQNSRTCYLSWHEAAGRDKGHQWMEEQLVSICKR

compound: CC1(C)S[C@@H]2[C@H](NC(=O)[C@H](N)c3ccccc3)C(=O)N2[C@H]1C(=O)O [ampicillin]; assay: log2 fold change of tryptic peptide abundance, ligand vs vehicle (limited proteolysis) (log2 ratio); higher = more trypsin-susceptible (destabilized); details: ligand concentration: 10 uM; sample: E. coli crude lysate

Target	log2 fold change
UniProt P21170 (peptide sequence: SKFGLAATQVLQLVETLR, peptide start residue: 241)	0.406
UniProt P0DSF4 (peptide sequence: GALLICPHCNK, peptide start residue: 36)	-0.107
UniProt P15047 (peptide sequence: GGAIVTVASDAAHTPR, peptide start residue: 123)	0.254
UniProt P21437 (peptide sequence: QIAEQERK, peptide start residue: 246)	-0.203
UniProt P0DN74 (peptide sequence: ALQAAGMTFR, peptide start residue: 20)	0.0681
UniProt P19768 (peptide sequence: RIEDLER, peptide start residue: 143)	0.268
UniProt P13039 (peptide sequence: AIAPFSDR, peptide start residue: 264)	-0.283
UniProt P23830 (peptide sequence: VLVDWHR, peptide start residue: 85)	0.336
UniProt P13009 (peptide sequence: EAIHAVFLYYAIR, peptide start residue: 577)	0.285
UniProt P17888 (peptide sequence: FNAPVEVLHSGLNDSER, peptide start residue: 269)	0.297
UniProt P19769 (peptide sequence: AVQRLMGTLSLK, peptide start residue: 78)	-0.217
UniProt P21179 (peptide sequence: RGGFESYQER, peptide start residue: 479)	0.291
UniProt P15031 (peptide sequence: LTELSGGQR, peptide start residue: 136)	-0.0979
UniProt P23331 (peptide sequence: GMRTVVYTAEIDDRFGAGK, peptide start residue: 30)	0.165
UniProt P16528 (peptide sequence: GYSFDDEEHALGLR, peptide start residue: 208)	-0.429
UniProt P21367 (peptide sequence: AQFPDTPYIAR, peptide start residue: 74)	-0.324
UniProt P0C077 (peptide sequence: ERSEVYSEAVKR, peptide start residue: 82)	-0.652

Target	log2 fold change
UniProt P0CB39 (peptide sequence: WIGNPYK, peptide start residue: 552)	0.366
UniProt P16676 (peptide sequence: IIAGLEHQTSGHIR, peptide start residue: 47)	0.311
UniProt P15877 (peptide sequence: TNESFQHVTCR, peptide start residue: 256)	-0.6
UniProt P24169 (peptide sequence: MHEGVSGR, peptide start residue: 411)	0.36
UniProt P0DSG8 (peptide sequence: FLLIPDGR, peptide start residue: 28)	-0.138
UniProt P22525 (peptide sequence: RFQAWQGLGADGAIGPATR, peptide start residue: 327)	-0.874
UniProt P16682 (peptide sequence: NLSETTKDK, peptide start residue: 238)	0.078
UniProt P15373 (peptide sequence: TRPFNIQQGK, peptide start residue: 84)	-0.512
UniProt P19323 (peptide sequence: SEAMYSVLK, peptide start residue: 385)	0.214
UniProt P18775 (peptide sequence: TIYEMTSELAKR, peptide start residue: 565)	-0.228
UniProt P0CG19 (peptide sequence: HAEGSVLVEFGDTK, peptide start residue: 23)	-0.201
UniProt P15043 (peptide sequence: KLERFGK, peptide start residue: 587)	-1.14
UniProt P15033 (peptide sequence: MCLVHIGK, peptide start residue: 61)	-0.221
UniProt P15082 (peptide sequence: EESDPPIDHK, peptide start residue: 61)	0.166
UniProt P22787 (peptide sequence: TVVPGESSATVK, peptide start residue: 396)	0.255
UniProt P11663 (peptide sequence: NAMLYDALK, peptide start residue: 125)	-0.015
UniProt P10151 (peptide sequence: AFQLFGSVR, peptide start residue: 82)	-0.742

Another view of some results above.
Target | log2 fold change
UniProt P15877 (peptide sequence: TNESFQHVTCR, peptide start residue: 256) | -0.6
UniProt P16682 (peptide sequence: NLSETTKDK, peptide start residue: 238) | 0.078
UniProt P15373 (peptide sequence: TRPFNIQQGK, peptide start residue: 84) | -0.512
UniProt P18775 (peptide sequence: TIYEMTSELAKR, peptide start residue: 565) | -0.228
UniProt P15043 (peptide sequence: KLERFGK, peptide start residue: 587) | -1.14
UniProt P22787 (peptide sequence: TVVPGESSATVK, peptide start residue: 396) | 0.255
UniProt P10151 (peptide sequence: AFQLFGSVR, peptide start residue: 82) | -0.742
